Test [1] addresses T1, HYL1, wild type, BiFC fusion (nYFP- and cYFP-tagged) (Arabidopsis thaliana), O04492.
T1 chain: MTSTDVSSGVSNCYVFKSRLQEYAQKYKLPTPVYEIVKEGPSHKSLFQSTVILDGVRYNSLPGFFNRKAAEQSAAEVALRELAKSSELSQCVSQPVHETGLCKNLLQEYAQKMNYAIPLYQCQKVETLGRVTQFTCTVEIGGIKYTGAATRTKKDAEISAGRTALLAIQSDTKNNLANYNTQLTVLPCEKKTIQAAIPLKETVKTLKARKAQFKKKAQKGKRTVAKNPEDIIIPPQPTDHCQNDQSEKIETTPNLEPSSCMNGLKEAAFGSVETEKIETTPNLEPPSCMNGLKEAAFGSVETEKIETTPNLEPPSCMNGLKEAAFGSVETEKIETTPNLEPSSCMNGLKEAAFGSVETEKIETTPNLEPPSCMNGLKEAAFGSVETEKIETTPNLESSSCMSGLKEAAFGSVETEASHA
Description: split reporter; BiFC: cYFP-tagged and nYFP-tagged constructs cotransformed into Arabidopsis protoplasts, 22.5°C in darkness for 12 h, confocal microscopy. The conditions noted are these: remark: other sources report otherwise.

Test [2] has as its target T2, HYL1^L165E, recombinant (MBP-L165E and GST-L165E) (Arabidopsis thaliana) (UniProt O04492).
T2 sequence: T1 chain with L165E
Description: pull-down; recombinant HYL1 or mutant from E. coli with DCL1 or SE tagged with 3×Flag purified from HEK293; western analysis; bait not stated; both purified.

The target in test [3] is T3, HYL1^G147E, recombinant (MBP-G147E and GST-G147E) (Arabidopsis thaliana) (UniProt O04492).
T3 sequence: T1 chain with G147E
The description is as above.

In test [4] the target is T2, HYL1^L165E, recombinant (MBP-L165E and GST-L165E) (Arabidopsis thaliana). Description: pull-down; MBP-tagged protein on amylose resin, incubated with GST-tagged protein overnight at 4°C in 25 mM Tris pH 7.4, 1 mM EDTA, 0.01% NP-40, 2 M NaCl; 10 washes; immunoblot with GST antibody; both purified.
Test [5] addresses T3, HYL1^G147E, recombinant (MBP-G147E and GST-G147E) (Arabidopsis thaliana). Described as above.
Test [6] concerns the target T4, HYL1, wild type, BiFC fusion (nYFP- and cYFP-tagged) (Arabidopsis thaliana) (UniProt O04492).
T4 sequence: T1 chain
Nature of the test: split reporter; BiFC: cYFP-tagged and nYFP-tagged constructs cotransformed into Arabidopsis protoplasts, 22.5°C in darkness for 12 h, confocal microscopy.

Test [7] deals with HYL1^T146R, BiFC fusion (Arabidopsis thaliana) (UniProt O04492). Described as above.
The target in test [8] is HYL1^C122R, BiFC fusion (Arabidopsis thaliana) (UniProt O04492). The description is as above.
Test [9] has as its target HYL1^T146E, BiFC fusion (Arabidopsis thaliana) (UniProt O04492). Described as above.
Test [10] addresses T5, HYL1^L165E, BiFC fusion (Arabidopsis thaliana) (UniProt O04492).
T5 sequence: T1 chain with L165E
Described as above.

In test [11] the target is HYL1^I158E, BiFC fusion (Arabidopsis thaliana) (UniProt O04492). The description is as above.
Test [12] addresses HYL1^R130E, BiFC fusion (Arabidopsis thaliana) (UniProt O04492). The test is described as above.

Numbering of substitutions follows the chain as printed. Names may count otherwise. Results are given in words; binding and its absence hold for the method and conditions named. For part of these data: Binding seen in cells or lysates may run through a third protein. Some binding calls cover weakened binding; strength is not graded here. Tags and fused reporters may be left off the sequences shown.

B1: SE, BiFC fusion, Q9ZVD0 1-720 (protein)
chain: MADVNLPPSDSVDNRLPEKSTSSSPPPPPPSSSLPQQEQEQDQQQLPLRRERDSRERRDERDIERPPPNRRERDRSPLPPPRRDYKRRPSLSPPPPYRDRRHSPPQRRSPPQKRYRRDDNGYDGRRGSPRGGYGPPDRRFGYDHGGGYDREMGGRPGYGDERPHGRFMGRYQDWEGGRGGYGDASNSGNPQRDGLMSYKQFIQELEDDILPSEAERRYQEYKSEYITTQKRAFFNTHKEEDWLKNKYHPTNLLSVIERRNDLAQKVAKDFLLDLQSGTLDLGPAVTALNKSGRTSEPNSEDEAAGVGKRKRHGMGGAKENELLSAAPKAPSFTSDPKRILTDVEQTQALVRKLDSEKKIEENVLQGSETEKSGREKLHSGSTGPVVIIRGLTSVKGLEGVELLDTLVTYLWRVHGLDYYGKVETNEAKGLRHVRAEGKVSDAKGDENESKFDSHWQERLKGQDPLEVMAAKEKIDAAATEALDPHVRKIRDEKYGWKYGCGAKGCTKLFHAAEFVYKHLKLKHTELVTELTTKVREELYFQNYMNDPNAPGGQPATQQSGPRDRPIRRKPSMENRLRDDRGGRRERDGRANGNDRNDRSEDQQRGDNDGGNPGEVGYDAFGGQGGVHVPPFLSDINPPPMLMPVPGAGPLGPFVPAPPEVAMQMFRDPSGPNPPFEGSGRGGPAPFLLSPAFRQDPRRLRSYQDLDAPEEEVTVIDYRSL
On to B1, for which, in test [1], the binding entry is reported as “binds”.

B2: SE tagged with 3×Flag, recombinant (protein, UniProt Q9ZVD0 1-720)
chain: B1 chain
Turning to B2, the binding result in test [2] and in test [3] was “binds” in each case.

B3: HYL1^L165E, recombinant (MBP-L165E and GST-L165E) (protein, UniProt O04492 1-419)
chain: T1 chain with L165E
For the molecule B3, the binding entry in test [4] was “binds weakly”.

B4: HYL1, full-length, recombinant (MBP-HYL1 and GST-HYL1) (protein, UniProt O04492 1-419)
chain: T1 chain
On to B4, for which the binding result in test [4] and in test [5] was “binds weakly” in each case.

B5: HYL1^G147E, BiFC fusion (protein, UniProt O04492 1-419)
chain: T1 chain with G147E
With B5, the binding result in test [6] was “binds weakly”.

B6: HYL1^T146R, BiFC fusion (protein, UniProt O04492 1-419)
chain: T1 chain with T146R
As to B6, the binding result in test [7] is on record as “binds”.

B7: HYL1^C122R, BiFC fusion (protein, UniProt O04492 1-419)
chain: T1 chain with C122R
As to B7, the binding entry in [8] is reported as “binds”.

B8: HYL1^T146E, BiFC fusion (protein, UniProt O04492 1-419)
chain: T1 chain with T146E
As to B8, the binding result in [9] was “binds”.

B9: HYL1^L165E, BiFC fusion (protein, UniProt O04492 1-419)
chain: T1 chain with L165E
In the case of B9, the binding entry in test [6] and in test [10] was “binds weakly” each time.

B10: HYL1^I158E, BiFC fusion (protein, UniProt O04492 1-419)
chain: T1 chain with I158E
Consider B10, for which the binding entry in [11] is given as “binds”.

B11: HYL1, wild type, BiFC fusion (nYFP- and cYFP-tagged), O04492 1-419 (protein)
chain: T1 chain
For the molecule B11, the binding result in test [1] is reported as “binds”.

B12: HYL1^R130E, BiFC fusion (protein, UniProt O04492 1-419)
chain: T1 chain with R130E
As for B12, the binding result in test [12] is on record as “binds”.

These data come from paper PMC4231765.
